Source: publication PMC9048134
These are yes or no findings as the source states them, for the method shown. In cells and extracts the contact can be indirect. Some binding calls cover weakened binding; strength is not graded here.

The chains behind the UniProt entries cited, without tags or fusion partners. Residues count along the entry.
UniProt O00168, residues 21-92: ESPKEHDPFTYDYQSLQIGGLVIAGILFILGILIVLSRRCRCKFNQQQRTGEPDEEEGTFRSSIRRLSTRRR

Tests used:
[1] = molecular target: human Na/K-ATPase α2 subunit fused to mCyRFP1 (donor) or mMaroon1 (acceptor) (human) (UniProt P50993); experiment: FRET or BRET; fluorescence lifetime imaging (FLIM) and TCSPC in live HEK293-AAV cells; mCyRFP1- and mMaroon1-labeled α isoforms in combinations; donor lifetime against donor alone
[2] = molecular target: human Na/K-ATPase α2 subunit fused to mCyRFP1 (donor) or mMaroon1 (acceptor) (human) (UniProt P50993); experiment: FRET or BRET; fluorescence lifetime (FLIM and TCSPC point measurements) in live HEK293-AAV cells; donor mCyRFP1-α, acceptor PLM-mMaroon1, 1:5 donor:acceptor, unlabeled β1 co-expressed; in PBS; also with 10 μM ouabain (FRET not affected); competition with unlabeled competitor (1:4 donor:unlabeled, 1:1 donor:acceptor)
[3] = molecular target: human Na/K-ATPase α3 subunit fused to mCyRFP1 (donor) or mMaroon1 (acceptor) (human) (UniProt P13637); experiment: FRET or BRET; fluorescence lifetime imaging (FLIM) and TCSPC in live HEK293-AAV cells; mCyRFP1- and mMaroon1-labeled α isoforms in combinations; donor lifetime against donor alone

Substance	binding [1]	binding [2]	further results
human Na/K-ATPase α3 subunit fused to mCyRFP1 (donor) or mMaroon1 (acceptor) (from UniProt P13637 1-1013)	binds	–	–
human Na/K-ATPase α2 subunit fused to mCyRFP1 (donor) or mMaroon1 (acceptor) (from UniProt P50993 1-1020)	binds	–	–
human Na/K-ATPase α3 subunit fused to mCyRFP1 (donor) or mMaroon1 (acceptor) (from UniProt P13637 1-1013) (other; other documents disagree on this pair)	–	–	binding [3]: binds

More lines, main results first:

binding [1]	binding [2]	Substance	further results
–	binds	unlabeled PLM (human phospholemman) (from UniProt O00168 21-92)	–
–	binds	PLM-mMaroon1 (human phospholemman fused to the N-terminus of mMaroon1) (from UniProt O00168 21-92)	–
